# Experimental data published in PubChem BioAssay AID2685 (National Center for Advancing Translational Sciences (NCATS), 2010).
# The list shows a part of the results. These are further read-outs of the screen, such as a control signal, another cell line or another target. No call is given for them. Most of these compounds were active or inconclusive in the main read-out, so they are no random draw. The note in brackets gives the kind of curve behind each potency; many fits are weak.
# Assay: qHTS Assay for Lipid Storage Modulators in Drosophila S3 Cells;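 as to cell number change: cells counted by Cell Tracker Red CMTPX staining in the red channel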
# Settings: BODIPY lipid droplet fluorescence, 18-24 h; for cell number change: measured here: cell count max response, cells fed with added oleic acid
# Outline: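 Laser-scanning cytometry quantifies lipid droplet accumulation (500–530 nm total intensity; droplet/cell object ratio) in oleic acid-fed (400 uM added) Drosophila S3 cells treated with a concentration series. 20 uM Triacsin C defined 100% inhibition.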
# [1] = measured here: lipid fluorescence (Fed channel) AC50, cells fed with added oleic acid
# [2] = measured here: cell number channel AC50, cells fed with added oleic acid
SMILES,cell number change [%],AC50 [1],AC50 [2]
CCN(CC(=O)Nc1ccc(NC(C)=O)cc1)C(=O)c1ccc(NC2CC2)c([N+](=O)[O-])c1,-21.2,"1.84 µM [rising, partial curve]",–
CC(=O)c1cccc(NC(=O)c2ccc(OCc3c(C)noc3C)cc2)c1,2.59,–,–
O=C(CCCN1C(=O)/C(=C/c2cccs2)SC1=S)NNC(=O)c1ccccc1O,–,"5.8 µM [falling, full curve]",–
O=C(COc1cc(F)ccc1[N+](=O)[O-])Nc1ccc(N2CCOCC2)cc1,-9.37,"0.082 µM [falling, full curve, poor fit]","0.082 µM [falling, full curve, poor fit]"
COc1ccccc1C(=O)NNC(=O)c1nn(Cc2ccccc2)c(=O)c2ccccc12,2.57,–,–
CCCC(C(=O)Nc1cc(S(=O)(=O)N2CCOCC2)ccc1OC)c1ccccc1 (stereo unspecified),6.04,"0.461 µM [rising, full curve, poor fit]",–
COc1ccc(NC(=O)CN(C)CC(=O)Nc2sc3c(c2C(N)=O)CCC3)cc1,63.9,–,"9.2 µM [rising, partial curve]"
CSc1nc2nc(C(F)(F)F)cc(-c3ccccc3)n2n1,–,"6.51 µM [rising, single point]","6.51 µM [rising, single point]"
O=c1ccn(-c2cccc(C(F)(F)F)c2)nc1-c1ccn(-c2cccc(Cl)c2)n1,-23.7,"23.1 µM [falling, single point]",–
COC(=O)c1ccc(CNC(=O)c2coc3ccccc3c2=O)cc1,–,"6.51 µM [rising, single point]",–
O=C(OCC1OC(Oc2ccc(O)cc2)C(O)C(O)C1O)c1ccccc1 (stereo unspecified),-38.3,"29.1 µM [falling, single point]","1.03 µM [falling, full curve]"
Cc1cc(NC(=O)C(=O)NCCN2CCN(S(C)(=O)=O)CC2)ccc1Br,-30.3,"6.51 µM [rising, single point]",–
COCCCNC(=O)c1ccc2c(c1)CCN2S(C)(=O)=O,1.85,"25.9 µM [falling, single point]",–
O=C(Nc1ccc(F)cc1)c1cccc(N2C(=O)C3C4C=CC(C5CC45)C3C2=O)c1 (stereo unspecified),-36.2,"13 µM [falling, partial curve, poor fit]","7.31 µM [falling, partial curve, poor fit]"
COc1ccc(NC(=O)CSc2n[nH]c(-c3ccccc3)n2)cc1S(N)(=O)=O,11.3,"6.51 µM [falling, single point]",–
Cn1c(Cn2nnc3ccccc32)nnc1SCC(=O)c1ccc(F)cc1,34.3,–,"9.2 µM [rising, partial curve]"
COCCN(C(=O)CSc1nc2ccccc2c(=O)n1C(C)COC)c1c(N)n(Cc2ccccc2)c(=O)[nH]c1=O (stereo unspecified),-32.5,"0.058 µM [falling, full curve, poor fit]","0.058 µM [falling, full curve, poor fit]"
COC(=O)CCN(C(=O)c1ccc(N2CCCCC2)c([N+](=O)[O-])c1)c1ccccn1,-22.6,–,–
O=C(CNC(=O)c1ccc(S(=O)(=O)N2CCCC2)cc1)N/N=C/c1ccc(F)cc1,31.7,"2.91 µM [rising, single point]","4.11 µM [rising, partial curve]"
COc1cccc(-c2nc(CS(=O)(=O)CC(=O)NCc3ccc(Cl)cc3)c(C)o2)c1,-23.6,"29.1 µM [falling, single point]",–
CC(NC(=O)c1cccc(S(=O)(=O)N(C)C)c1)C1CC2CCC1C2 (stereo unspecified),–,"0.00461 µM [falling, full curve, poor fit]",–
O=C(NCCCc1ccccc1)c1cccc(S(=O)(=O)N2CCOCC2)c1,3.88,"6.51 µM [falling, single point]","6.51 µM [falling, single point]"
Cc1cc(C)nc(NS(=O)(=O)c2ccc(NC(=S)NC(=O)c3ccco3)cc2)n1,-29.1,"32.6 µM [falling, single point]",–
C=CCOc1c(Br)cc(/C=N/O)cc1OCC,–,–,"4.61 µM [falling, partial curve, poor fit]"
CCc1ccccc1NC(=S)N(CCOC)C(C)c1ccco1 (stereo unspecified),-1.17,"18.4 µM [rising, partial curve]",–
COc1ccc(-c2cc(C(=O)Nc3cccnc3)no2)cc1OC,-7.94,–,–
O=S1(=O)N=C(N(CCO)/N=C/C=C/c2ccccc2)c2ccccc21,-39.2,–,–
CC1(C(=O)O)CCC(C(=O)Nc2cccc(F)c2)C1(C)C (stereo unspecified),-6.38,"0.00517 µM [falling, full curve]",–
CC(O)CSc1nc2c(c(=O)[nH]c(=O)n2C)n1CC(O)COc1ccccc1 (stereo unspecified),0.342,–,–
CN(C)CC#Cc1cncc(C(=O)NNC(=O)Nc2ccc(Cl)cc2)c1,14.8,"0.517 µM [falling, single point]",–

# Single values from the entries so far.
# CCc1ccccc1NC(=S)N(CCOC)C(C)c1ccco1 (stereo unspecified) | AC50 [1]: 18.4 µM [rising, partial curve]
# COC(=O)CCN(C(=O)c1ccc(N2CCCCC2)c([N+](=O)[O-])c1)c1ccccn1 | cell number change [%]: -22.6
